# PubChem BioAssay (NCATS)
# Amino acid sequences for entries named in this document (tags omitted). A change or cut given only in a name is not applied to a line headed by its entry.
# UniProt P21964: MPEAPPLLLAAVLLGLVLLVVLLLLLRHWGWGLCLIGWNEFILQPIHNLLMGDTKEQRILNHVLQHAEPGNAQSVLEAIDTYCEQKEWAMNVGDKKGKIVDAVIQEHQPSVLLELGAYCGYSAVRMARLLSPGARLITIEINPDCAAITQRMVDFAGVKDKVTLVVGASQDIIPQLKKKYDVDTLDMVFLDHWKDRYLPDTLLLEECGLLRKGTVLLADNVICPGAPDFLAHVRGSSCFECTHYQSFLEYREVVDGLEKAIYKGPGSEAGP
# UniProt P50135: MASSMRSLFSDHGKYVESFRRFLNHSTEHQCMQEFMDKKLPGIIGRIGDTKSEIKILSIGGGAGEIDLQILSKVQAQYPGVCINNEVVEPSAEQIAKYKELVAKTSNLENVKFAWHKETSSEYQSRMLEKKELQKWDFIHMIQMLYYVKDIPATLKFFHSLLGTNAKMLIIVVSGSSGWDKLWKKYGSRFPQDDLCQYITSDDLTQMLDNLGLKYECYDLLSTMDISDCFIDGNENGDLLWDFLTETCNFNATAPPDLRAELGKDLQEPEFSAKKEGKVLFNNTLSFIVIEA
# UniProt P40261: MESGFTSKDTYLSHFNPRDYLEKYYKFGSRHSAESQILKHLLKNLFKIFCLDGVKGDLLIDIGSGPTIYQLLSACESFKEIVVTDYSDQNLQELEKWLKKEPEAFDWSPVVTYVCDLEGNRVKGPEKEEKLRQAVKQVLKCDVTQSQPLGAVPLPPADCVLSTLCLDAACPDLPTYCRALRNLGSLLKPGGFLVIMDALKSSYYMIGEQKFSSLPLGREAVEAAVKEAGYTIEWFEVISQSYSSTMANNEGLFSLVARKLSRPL
# UniProt P11086: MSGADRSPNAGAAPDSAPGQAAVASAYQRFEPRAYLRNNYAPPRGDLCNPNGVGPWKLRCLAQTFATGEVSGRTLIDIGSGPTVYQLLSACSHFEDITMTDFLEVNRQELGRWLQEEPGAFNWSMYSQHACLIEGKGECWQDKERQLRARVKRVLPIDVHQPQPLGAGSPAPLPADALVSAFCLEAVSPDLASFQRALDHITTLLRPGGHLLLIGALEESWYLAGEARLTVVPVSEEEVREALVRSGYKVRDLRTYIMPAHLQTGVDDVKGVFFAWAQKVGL
# This is one part of the list. These are further read-outs of the screen, such as a control signal, another cell line or another target. No call is given for them. For some assays here: Most of these compounds were active or inconclusive in the main read-out, so they are no random draw. For some assays here: The note in brackets gives the kind of curve behind each potency; many fits are weak.
# What was measured:
# [1] = qHTS assay for small molecule agonists of retinoid X receptor alpha signaling (AID 588544); details: HEK293T RXRa-UAS-bla, beta-lactamase reporter, 18 h; 530 nm emission
# [2] = A High-Content qHTS Against Drug Library for the Identification of Small Molecules that Inhibit DYT1 Early Onset Primary Dystonia-Associated Cell Pathology (AID 1645839); details: HEK293 Flp-In EGFP-delE TorsinA, punctate imaging, 48 h; measured here: cell count cytotoxicity
# In short: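 Cells were seeded and left for 24 h, then dosed with compound alongside tetracycline induction of mutant EGFP-TorsinA. They were incubated for 48 h, fixed in 4% paraformaldehyde, permeabilized and imaged for mislocalization (%pathology) and cell count.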
# [3] = qHTS assay for small molecule antagonists of glucocorticoid receptor signaling (AID 588533); details: HeLa MMTV-bla, GRE beta-lactamase ratio, antagonist mode, 18 h; measured here: W530 channel AC50
# [4] = qHTS assay for small molecule antagonists of retinoid X receptor alpha signaling (AID 588546); details: HEK293T RXRa-UAS-bla, beta-lactamase ratio, antagonist mode; measured here: W530 green channel, cytotoxicity proxy;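 note: cells stimulated with 9-cis-retinoic acid as agonist; % is set by controls: 0 for no effect and ±100 for the full control effect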
# In short: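 Beta-lactamase reporter inhibition, read as CCF4 fluorescence ratio (ex 405, em 460/530 nm) after 2 h at RT. HEK293T UAS-bla cells, 2500/well, were stimulated with 9-cis-RA at 500 or 100 nM final alongside test compound for 18 h at 37 C.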
# [5] = qHTS assay for small molecule antagonists of androgen receptor signaling (AID 588516); details: AR-UAS-bla HEK293, beta-lactamase ratio, antagonist mode, 16 h
# In short: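 Antagonist mode: inhibition of R1881-stimulated (10 nM final) bla reporter in GeneBLAzer AR HEK 293 cells, 16 h at 37C, compounds titrated. IC50 and efficacy from Hill-equation fits of 405/460–530 nm FRET ratios.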
# [6] = qHTS assay for small molecule antagonists of peroxisome proliferator-activated receptor gamma signaling (AID 588537); details: HEK293 PPARg-UAS-bla, beta-lactamase ratio, antagonist mode; measured here: W460 blue channel
# In short: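 Read-out: CCF4 fluorescence (ex 405, em 460/530 nm) after 2 h at RT. Cells were HEK293 carrying a UAS-bla reporter and treated 16 h at 37 C with compound plus rosiglitazone (50 nM final). Normalized to rosiglitazone and DMSO.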
# [7] = target: Catechol O-methyltransferase (Homo sapiens) (UniProt P21964); experiment: Confirmatory Screen for Target Class Profiling of Small Molecule Inhibitors of Methyltransferases (AID 1745852); details: MTase-Glo luminescence, SAH detection, recombinant enzyme; measured here: COMT inhibition potency
# [8] = target: Histamine N-methyltransferase (Homo sapiens) (UniProt P50135); experiment: as above; details: MTase-Glo luminescence, SAH detection, recombinant enzyme; measured here: HNMT inhibition potency
# [9] = target: Nicotinamide N-methyltransferase (Homo sapiens) (UniProt P40261); experiment: as above; details: MTase-Glo luminescence, SAH detection, recombinant enzyme; measured here: NNMT inhibition potency
# [10] = target: Phenylethanolamine N-methyltransferase (Homo sapiens) (UniProt P11086); experiment: as above; details: MTase-Glo luminescence, SAH detection, recombinant enzyme; measured here: PNMT inhibition potency
# [11] = qHTS assay for small molecule antagonists of vitamin D receptor signaling (AID 588541); details: HEK293T VDR-UAS-bla, beta-lactamase ratio, antagonist mode; measured here: W460 blue channel (cell viability)
# [12] = qHTS Assay for Modulators of Human Peripheral Myelin Protein 22 (PMP22) Expression/Activity (AID 1967); details: Cell-based PMP22 reporter, dual-color luciferase ratio; measured here: red reporter channel AC50; EF-alpha promoter control reporter in MSC80 mouse Schwann cells
# In short: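 Quantitative HTS in a mouse Schwann cell line expressing dual click beetle luciferases: Pmp22 promoter (green) and control EF-alpha promoter (red). After 24h treatment, corrected green/red signal ratio gave %Activity relative to untreated cells.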
# [13] = qHTS assay for small molecule antagonists of peroxisome proliferator-activated receptor delta signaling (AID 588535); details: HEK293T PPARd-UAS-bla, beta-lactamase FRET ratio, 18 h; 460 nm channel;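 note: cells co-treated with a PPAR-delta agonist as stimulator during compound exposure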
# In short: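 Beta-lactamase reporter read-out (405 nm excitation, 460/530 nm emission) after CCF4 loading for 2 hrs at RT. HEK293T PPAR-delta-UAS-bla cells, 2% charcoal/dextran FBS, compounds for 18 hrs at 37 C. Hill fit gave IC50 and efficacy.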
# [14] = qHTS Assay for Inhibitors of PDE-IV (AID 607); details: HEK293 ACTOne CNG channel cells, membrane potential fluorescence; measured here: parental cell counter-screen
# In short: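 HEK293 ACTOne cells with CNG channel (1000/well), endogenous PDE4; membrane potential dye, compounds up to 22.9 uM final. Fluorescence Ex 535/Em 590; RO 20-1724 (100 uM final) as reference.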
# [15] = S16 Schwann cell PMP22 intronic element beta-lactamase assay (AID 624044); details: S16 rat Schwann cells, PMP22 element beta-lactamase FRET, 24 h; measured here: 460 nm blue channel
# In short: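 Beta-lactamase reporter under a PMP22 intronic regulatory element in stable S16 rat Schwann cells; 24 h compound exposure. 460 nm blue signal normalized between DMSO (0%) and potassium clavulanate, with 535 nm FRET tracking viability; curves classed by r2 and response.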
# [16] = Nrf2 qHTS screen for inhibitors: Validation (AID 493153); details: A549 ARE-Fluc reporter, 18-24 h; AC50: CellTiter-Fluor fluorescence read, measured here: cytotoxicity CellTiter-Fluor AC50; viability change: measured here: cytotoxicity max response
# In short: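 Concentration-response test in A549 ARE_Fluc reporter cells (5% FBS OPTI-MEM), compound exposure 18-24 h at 37°C, 5% CO2. Cell viability measured first by CellTiter-Fluor fluorescence; ARE-driven luciferase luminescence then measured as Nrf2 activity.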
# [17] = qHTS drug screen for cell cycle checkpoint inhibitors in PARPi-resistant BRCA-mutant ovarian cancer cell lines. (AID 1963452); details: PEO1/OlaR viability, CellTiter-Glo luminescence, 96 h
# In short: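 PEO1, PEO4 and PEO1/OlaR ovarian cancer cells, 600 per well, exposed 96 h at 37C to a dilution series. Viability read by CellTiter-Glo luminescence, normalized to DMSO and empty wells; activity summarized as Z-AUC.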
# [18] = qHTS for identification of novel therapeutic agents for treatment of microphthalmiaassociated transcription factor (MiT) renal cell carcinoma (RCC) (AID 1963991); details: TFE3-RCC viability, CellTiter-Glo, 48 h
# In short: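 Three TFE3-fusion RCC lines (UOK109, UOK124, UOK145), 500 cells/well in complete medium, were treated with MIPE 4.0 compounds for 48 hours at 37 C. Viability was by CellTiter-Glo luminescence, normalized to DMSO (100%) and empty wells (0%); curves fitted over 11 concentrations.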
# [19] = measured here: W530 green channel, cytotoxicity/artifact
structure (smiles),measurement,setting,value
Nc1ccc(Cl)cc1,max response,[1],-5.47%
same,AC50,[2],"6.31 µM [falling, full curve]"
CCCCCCCCCCCC[N+](C)(C)CCOc1ccccc1,AC50,[3],"39.8 µM [falling, partial curve]"
same,max response,[1],14.3%
same,max response,[4],-35.1%
same,AC50,[2],"35.5 µM [falling, single point]"
Nc1ccc(Cl)cc1N,AC50,[5]; [19],"7.94 µM [rising, partial curve, poor fit]"
same,AC50,[6],"50.1 µM [rising, single point]"
same,max response,[1],34.9%
same,AC50,[2],"8.91 µM [falling, full curve]"
C[C@H]1CCC[C@H](O)CCC/C=C/c2cc(O)cc(O)c2C(=O)O1,IC50,[7],"2.41 µM [falling, full curve]"
same,IC50,[8],"1.92 µM [falling, full curve]"
same,IC50,[9],"3.83 µM [falling, full curve]"
same,IC50,[10],"3.04 µM [falling, full curve]"
Cc1[nH]nc2ccc(-c3cncc(OC[C@@H](N)Cc4c[nH]c5ccccc45)c3)cc12,IC50,[7],"24.1 µM [falling, partial curve]"
same,IC50,[8],"15.2 µM [falling, partial curve]"
same,IC50,[9],"21.5 µM [falling, partial curve]"
same,IC50,[10],"19.2 µM [falling, partial curve]"
CC1(C)C(C=C(Cl)Cl)C1C(=O)OC(C#N)c1cccc(Oc2ccccc2)c1 (centres undefined),AC50,[11],"14.1 µM [falling, partial curve, poor fit]"
same,AC50,[2],"20 µM [rising, single point]"
CCC1CN2CCc3cc(OC)c(OC)cc3C2CC1CC1=NCCc2cc(O)c(OC)cc21 (centres undefined),IC50,[7],"9.37 µM [falling, partial curve]"
COc1ccc2c(c1OC)C(=O)O[C@H]2[C@@H]1c2cc3c(cc2CCN1C)OCO3,AC50,[12],"84.9 µM [falling, single point]"
same,AC50,[2],"0.891 µM [falling, full curve, poor fit]"
COc1cc(CC(C)N)cc2c1OCO2 (centres undefined),AC50,[2],"39.8 µM [falling, single point]"
Nc1ccc(N=Nc2ccccc2)cc1,max response,[4],-6.15%
same,AC50,[2],"2.82 µM [falling, full curve]"
O=C(Nc1ccccc1-c1ccc(Cl)cc1)c1cccnc1Cl,max response,[13],110%
same,max response,[1],4.55%
same,AC50,[2],"4.47 µM [rising, full curve, poor fit]"
O=[N+]([O-])c1c2ccccc2cc2ccccc12,AC50,[6],"11.2 µM [falling, partial curve, poor fit]"
same,max response,[4],-3.92%
same,AC50,[2],"28.2 µM [falling, partial curve, poor fit]"
C[C@H](N)[C@H](O)c1ccc(O)c(O)c1,AC50,[14],"12.6 µM [rising, partial curve, poor fit]"
same,AC50,[2],"35.5 µM [rising, single point]"
NC1CCc2cc(O)c(O)cc2C1 (centres undefined),IC50,[7],"5.44 µM [rising, partial curve]"
C[C@H]1O[C@@H](O[C@H]2[C@@H](O)C[C@H](O[C@H]3[C@@H](O)C[C@H](O[C@H]4CC[C@@]5(C)[C@H](CC[C@@H]6[C@@H]5CC[C@]5(C)[C@@H](C7=CC(=O)OC7)CC[C@]65O)C4)O[C@@H]3C)O[C@@H]2C)C[C@H](O)[C@@H]1O,AC50,[5]; measured here: W460 blue channel fit,"0.891 µM [falling, full curve]"
same,max response,[13],98.8%
same,max response,[1],38.7%
same,max response,[4],46.8%
same,AC50,[2],"2.82 µM [falling, full curve]"
CC(C)NC(C)C,max response,[13],52.3%
same,AC50,[6],"70.8 µM [rising, single point]"
same,AC50,[15],"1.26 µM [falling, full curve, poor fit]"
same,AC50,[2],"0.891 µM [rising, full curve, poor fit]"
C[C@@H]1O[C@@H](O[C@H]2C[C@@H](O)[C@]3(CO)[C@H]4[C@H](O)C[C@]5(C)[C@@H](C6=CC(=O)OC6)CC[C@]5(O)[C@@H]4CC[C@]3(O)C2)[C@H](O)[C@H](O)[C@H]1O,AC50,[12],"84.9 µM [falling, single point]"
same,AC50,[16],"0.0651 µM [falling, full curve]"
same,viability change,[16],-41.2%
same,max response,[1],37.1%
same,max response,[4],50%
same,AC50,[2],"2.51 µM [falling, partial curve, poor fit]"
same,AC50,[17]; measured here: PEO1 parental viability,"0.11 µM [falling, full curve]"
same,AC50,[17]; measured here: PEO4 viability,"0.049 µM [falling, full curve]"
same,AC50,[18]; measured here: UOK124 cell viability,"0.0469 µM [falling, full curve]"
same,AC50,[18]; measured here: UOK145 cell viability,"0.0235 µM [falling, full curve]"
C[C@H]1O[C@@H](O[C@H]2CC[C@]3(CO)C4CC[C@]5(C)[C@@H](C6=CC(=O)OC6)CC[C@]5(O)[C@@H]4CC[C@H]3C2)[C@H](O)[C@H](O)[C@@H]1O[C@@H]1O[C@H](CO)[C@@H](O)[C@H](O)[C@H]1O (some centres undefined),IC50,[7],"0.359 µM [falling, full curve]"
CCC(=O)O[C@H]1CC[C@H]2[C@@H]3CCC4=CC(=O)CC[C@]4(C)[C@H]3CC[C@]12C,AC50,[5]; [19],"44.7 µM [rising, single point]"
same,AC50,[11],"31.6 µM [rising, partial curve, poor fit]"
same,max response,[1],24.2%
same,AC50,[2],"11.2 µM [falling, partial curve, poor fit]"

# Given with tabs: entries from further up.
structure (smiles)	measurement	setting	value
CCCCCCCCCCCC[N+](C)(C)CCOc1ccccc1	max response	[4]	-35.1%
same	AC50	[2]	35.5 µM [falling, single point]
C[C@H]1CCC[C@H](O)CCC/C=C/c2cc(O)cc(O)c2C(=O)O1	IC50	[7]	2.41 µM [falling, full curve]
Cc1[nH]nc2ccc(-c3cncc(OC[C@@H](N)Cc4c[nH]c5ccccc45)c3)cc12	IC50	[10]	19.2 µM [falling, partial curve]
CC1(C)C(C=C(Cl)Cl)C1C(=O)OC(C#N)c1cccc(Oc2ccccc2)c1 (centres undefined)	AC50	[11]	14.1 µM [falling, partial curve, poor fit]
same	AC50	[2]	20 µM [rising, single point]
Nc1ccc(N=Nc2ccccc2)cc1	AC50	[2]	2.82 µM [falling, full curve]
CC(C)NC(C)C	AC50	[15]	1.26 µM [falling, full curve, poor fit]
C[C@@H]1O[C@@H](O[C@H]2C[C@@H](O)[C@]3(CO)[C@H]4[C@H](O)C[C@]5(C)[C@@H](C6=CC(=O)OC6)CC[C@]5(O)[C@@H]4CC[C@]3(O)C2)[C@H](O)[C@H](O)[C@H]1O	viability change	[16]	-41.2%
same	AC50	[17]; measured here: PEO4 viability	0.049 µM [falling, full curve]
same	AC50	[18]; measured here: UOK145 cell viability	0.0235 µM [falling, full curve]
CCC(=O)O[C@H]1CC[C@H]2[C@@H]3CCC4=CC(=O)CC[C@]4(C)[C@H]3CC[C@]12C	AC50	[5]; [19]	44.7 µM [rising, single point]
